Experimental data from patent US11180484B2, “Pyrazole derivatives as plasma kallikrein inhibitors” (KALVISTA PHARMACEUTICALS LIMITED, priority 2016, dated 2021).

By UniProt entry, the sequences of proteins in these tests, tags left out. Residues count along the entry.
UniProt P06870, 25-262: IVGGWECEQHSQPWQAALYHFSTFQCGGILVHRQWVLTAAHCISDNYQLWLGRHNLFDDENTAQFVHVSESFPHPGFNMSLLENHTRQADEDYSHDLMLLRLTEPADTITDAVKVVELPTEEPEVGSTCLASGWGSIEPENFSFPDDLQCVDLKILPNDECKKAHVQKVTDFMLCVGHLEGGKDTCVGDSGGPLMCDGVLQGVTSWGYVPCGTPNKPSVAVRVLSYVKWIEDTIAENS

Target: Human KLK1 (Homo sapiens (Human), UniProt P06870)
Assay: Determination of the IC50 for KLK1
Assay type: biochemical
Conditions: 25° C., substrate H-DVal-Leu-Arg-AFC
Procedure: KLK1 inhibitory activity in vitro was determined using standard published methods (see e.g. Johansen et al., Int. J. Tiss. Reac. 1986, 8, 185; Shori et al., Biochem. Pharmacol., 1992, 43, 1209; Sturzebecher et al., Biol. Chem. Hoppe-Seyler, 1992, 373, 1025). Human KLK1 (Callbiochem) was incubated at 25° C. with the fluorogenic substrate H-DVal-Leu-Arg-AFC and various concentrations of the test compound. Residual enzyme activity (initial rate of reaction) was determined by measuring the change in […] at 410 nm and the IC50 value for the test compound was determined.

`COCc1nn(Cc2ccc(Cn3ccccc3=O)cc2)cc1C(=O)NCc1c(F)ccc(OC)c1C(F)F` [Reference Example F, 3-Methoxymethyl-1-[4-(2-oxo-2H-pyridin-1-ylmethyl)-benzyl]-1H-pyrazole-4-carboxylic acid 2-difluoromethyl-6-fluoro-3-methoxy-benzylamide, reference compound] was tested, and the IC50 was > 40 µM.
